This note sets out measurements from article PMC8763653.

The chains behind the UniProt entries cited, without tags or fusion partners. Where a name states a change or a piece, a line headed by the entry shows the natural chain unless it says otherwise. A line that says so, or that is headed by a name, gives the form on record, which may keep a tag or linker. Residues count along the entry.
6×Myc‐tagged human CHI3L1 (chitinase 3 like1), full length (P36222, residues 22-383): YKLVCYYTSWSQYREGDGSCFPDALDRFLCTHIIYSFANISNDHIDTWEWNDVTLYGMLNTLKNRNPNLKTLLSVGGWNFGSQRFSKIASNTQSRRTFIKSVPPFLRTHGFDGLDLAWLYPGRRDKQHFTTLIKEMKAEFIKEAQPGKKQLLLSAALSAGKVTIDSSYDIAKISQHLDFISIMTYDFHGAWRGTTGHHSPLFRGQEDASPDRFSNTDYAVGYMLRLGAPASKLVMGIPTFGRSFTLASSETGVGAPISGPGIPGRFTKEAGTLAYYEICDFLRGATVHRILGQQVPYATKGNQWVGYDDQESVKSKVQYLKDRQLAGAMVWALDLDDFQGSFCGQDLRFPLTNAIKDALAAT
6×Myc‐tagged human CHI3L1 Δ278‐294 (P36222, form named): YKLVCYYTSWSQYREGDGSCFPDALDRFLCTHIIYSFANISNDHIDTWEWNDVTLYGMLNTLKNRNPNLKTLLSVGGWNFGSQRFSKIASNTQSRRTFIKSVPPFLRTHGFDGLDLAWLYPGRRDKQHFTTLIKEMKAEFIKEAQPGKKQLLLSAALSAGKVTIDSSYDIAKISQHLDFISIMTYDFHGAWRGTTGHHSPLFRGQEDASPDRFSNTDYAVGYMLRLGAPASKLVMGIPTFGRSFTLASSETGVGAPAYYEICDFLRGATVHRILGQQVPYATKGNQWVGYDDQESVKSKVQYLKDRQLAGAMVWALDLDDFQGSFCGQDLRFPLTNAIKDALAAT

Results are given in words; binding and its absence hold for the method and conditions named. In cells and extracts the contact can be indirect. Some binding calls cover weakened binding; strength is not graded here.

Holding throughout (assay): co-IP; reversed: A549 cells transfected with FL or Δ278‐294 CHI3L1‐6×Myc, with or without 5 μM K284 for 24 h; immunoprecipitation with anti‐CHI3L1 IgG, blot with anti‐IL‐13Rα1 IgG or anti‐IL‐13Rα2 IgG
Test [1] addresses 6×Myc‐tagged human CHI3L1 (chitinase 3 like1), full length (human), P36222. The settings on record: remark: other sources report otherwise.
The target in test [2] is 6×Myc‐tagged human CHI3L1 Δ278‐294 (human) (UniProt P36222).
The target of test [3] is 6×Myc‐tagged human CHI3L1 (chitinase 3 like1), full length (human) (UniProt P36222).

B1: interleukin‐13 receptor subunit alpha‐2 (IL‐13Rα2), Q14627 27-380 (receptor)
chain: DTEIKVNPPQDFEIVDPGYLGYLYLQWQPPLSLDHFKECTVEYELKYRNIGSETWKTIITKNLHYKDGFDLNKGIEAKIHTLLPWQCTNGSEVQSSWAETTYWISPQGIPETKVQDMDCVYYNWQYLLCSWKPGIGVLLDTNYNLFYWYEGLDHALQCVDYIKADGQNIGCRFPYLEASDYKDFYICVNGSSENKPIRSSYFTFQLQNIVKPLPPVYLTFTRESSCEIKLKWSIPLGPIPARCFDYEIEIREDDTTLVTATVENETYTLKTTNETRQLCFVVRSKVNIYCSDDGIWSEWSDKQCWEGEDLSKKTLLRFWLPFGFILILVIFVTGLLLRKPNTYPKMIPEFFCDT
For B1, in test [1], the binding entry is reported as “binds”.

B2: interleukin‐13 receptor subunit alpha‐2 (IL‐13Rα2) (receptor, UniProt Q14627 27-380)
chain: DTEIKVNPPQDFEIVDPGYLGYLYLQWQPPLSLDHFKECTVEYELKYRNIGSETWKTIITKNLHYKDGFDLNKGIEAKIHTLLPWQCTNGSEVQSSWAETTYWISPQGIPETKVQDMDCVYYNWQYLLCSWKPGIGVLLDTNYNLFYWYEGLDHALQCVDYIKADGQNIGCRFPYLEASDYKDFYICVNGSSENKPIRSSYFTFQLQNIVKPLPPVYLTFTRESSCEIKLKWSIPLGPIPARCFDYEIEIREDDTTLVTATVENETYTLKTTNETRQLCFVVRSKVNIYCSDDGIWSEWSDKQCWEGEDLSKKTLLRFWLPFGFILILVIFVTGLLLRKPNTYPKMIPEFFCDT
Take B2: the binding entry in test [2] was “binds”.

B3: IL‐13Rα1 (receptor, UniProt P78552 22-427)
chain: GGGGAAPTETQPPVTNLSVSVENLCTVIWTWNPPEGASSNCSLWYFSHFGDKQDKKIAPETRRSIEVPLNERICLQVGSQCSTNESEKPSILVEKCISPPEGDPESAVTELQCIWHNLSYMKCSWLPGRNTSPDTNYTLYYWHRSLEKIHQCENIFREGQYFGCSFDLTKVKDSSFEQHSVQIMVKDNAGKIKPSFNIVPLTSRVKPDPPHIKNLSFHNDDLYVQWENPQNFISRCLFYEVEVNNSQTETHNVFYVQEAKCENPEFERNVENTSCFMVPGVLPDTLNTVRIRVKTNKLCYEDDKLWSNWSQEMSIGKKRNSTLYITMLLIVPVIVAGAIIVLLLYLKRLKIIIFPPIPDPGKIFKEMFGDQNDDTLHWKKYDIYEKQTKEETDSVVLIENLKKASQ
B3: the binding entry in test [3] is “binds”.
